The results in this text go back to patent US6531462B2, “Medicament for treating obesity and improving lipid metabolism” (priority 1997, dated 2003).

Common to all, as to format: in vivo, CDF1 male mice
The nature of data set [1]: Example 1: body weight, body fat and feed intake of mice fed feed supplemented with 0.5% test compound. Here is the method: 5-Sitosten-3-one was prepared according to the method of Parish (Parish, E. J., et al., Synthetic Communication, 22, pp.2839-2847, 1992) by using β-sitosterol (Tokyo Chemical Industry Co., Ltd.) as a starting material and used in the experiments. The content ratio of 24-ethyl and 24-methyl compounds in the synthesized product was 6.5:3.5. As experimental animals, six CDF1 male mice (5-week old, Charles River Japan Inc.) were used in each experimental group. The animals were fed in aluminum cages for mice, and allowed to feed and water ad libitum. The animals were fed for 2 weeks under feeding conditions at a temperature of 24±1° C. and a relative humidity of 55±5%, where light and darkness were controlled to change every 12 hours, and each cage and floor mat (white flakes) were exchanged twice a week.
Modified AIN (Oriental Yeast Co.) was used as basic feed and mixed with 0.5% 5-sitosten-3-one to prepare test feeds. A feed used as a positive control was prepared by adding 0.5% of 4-cholesten-3-one (Japanese Patent Unexamined Publication No. Hei 5-170651/1993) to the basic feed. Non-treated mice as a control were fed solely with the basic feed. The basic feed was composed of 22.8% crude protein, 54.1% carbohydrates, 6.0% lipids, 4.9% fibers, 2.9% ash, and 8.7% water, and its calorie was 1,523 kJ. The feed was stored at 4° C. after preparation, and a fresh feed was supplied every day.
The animals were weighed at given intervals of time, and the average values and standard errors of the experimental groups were determined. In addition, feed consumptions were measured at given intervals of time and daily averages per mouse were determined. The animals were observed every day. After the end of the feeding, the animals were anesthetized to death with carbon dioxide gas, and bloods were collected from the vena cava to obtain serums. The animals were autopsied, and the brains, lungs, hearts, livers, spleens, kidneys, testis, adrenals and intraperitoneal fat were examined by the naked eye and weighed. As to serum lipid, neutral fats were measured by using a clinical test kit based on the enzyme method (Triglyceride-E Test, Wako Pure Chemicals Industries Co., Ltd.), and total cholesterol and cholestanol were measured by the method of Kasama (T. Kasama, et al., J. Chromatogr., 400, 241, 1987) with modifications, where the amount of benzoyl chloride was increased by 10 times, the reaction time was doubled, and the measurement was performed by using a high performance liquid chromatography system. Significant differences were determined by t-test for body weights and serum lipids on the basis of the non-treated control mice.

Data set [2] is described as follows: Example 3: dose response of 5-sitosten-3-one on body weight, feed intake, feed efficiency and intraperitoneal fat. The following applies: for Feed intake: total throughout the experimental period. From the text: 5Sitosten-3-one was synthesized from β-sitosterol (Tokyo Chemical Industry Co., Ltd.) according to the method of Parish (Parish, E. J., et al., Synthetic Communication, 22, pp.2839-2847, 1992), and purified by silica gel column chromatography and recrystallization. The content ratio of 24-ethyl isomer and 24-methyl compounds in the synthesized product was 6.5:3.5. As experimental animals, thirty 4-week old CDF1 male mice were purchased from Charles River Japan Inc. and divided into five experimental groups each composed of six mice. The test compounds were administered as the admixture in feeds, and the following groups were provided: (1) 0.1% addition, (2) 0.3% addition, (3) 0.5% addition, (4) a lipid-free feed without the addition of the test compound, and (5) control group without the addition of the test compound. A purified feed (modified AIN, Oriental Yeast Co.) was used as a basic feed, and supplemented with 10% soybean oil (Wako Pure Chemical Industries Co., Ltd.) to prepare solid feeds with or without the addition of the test compound. The lipid-free feed, per se, was processed to obtain solid feed. The animals were fed for a week with the feed for the control without the addition of test compound for acclimatization, and then the animals were allowed to feed with the respective feed ad libitum.
Each group of animals was housed in an aluminum cages of 22×33×11(h)cm (6 mice per a cage), and feedings were carried out at a temperature of 24±1° C. and a relative humidity of 55±5%, where light and darkness were controlled change every 12 hours. Measurements of body weights and feed intakes, and observations of general conditions were conducted three times a week. After the feeding for 3 week with the test feeds, the animals were subjected to autopsy and their bloods were collected. As serum lipid analyses, triglyceride, phospholipid, free fatty acid, total cholesterol, and HDL-cholesterol were measured by using a clinical test kit (Wako Pure Chemicals Industries Co., Ltd. ). Significances of the resulting values were examined by the variance analysis for the groups treated with the medicament, or by the t-test for the lipid-free feed group.

A short description of data set [3]: Example 2: body weight, feed intake, feed efficiency and intraperitoneal fat of mice fed 0.5% test compound. To be noted: 0.5% in feed, total for 14 days. From the text: As 24-alkylcholesten-3-ones, (1) 4-sitosten-3-one, (2) 6α-hydroxy-4-sitosten-3-one, and (3) 6-hydroxy-4-sitosten-3-one (α:β=2.6:1) were synthesized by using β-sitosterol (Tokyo Chemical Industries Co., Ltd.). The content ratio of 24-ethyl and 24-methyl compounds in the synthesized product was 6.5:3.5. As experimental animals, six CDF1 male mice (5-week old, Charles River Japan Inc.) were used in each experimental group. A purified feed (Modified AIN, Oriental Yeast Co.) was used as a basic feed and mixed with 0.5% test compounds to prepare test feeds. The animals were allowed to feed and water ad libitum. The animals were weighed and observed to examine general conditions twice a week. The animals were subjected to autopsy after the end of the feeding, and their bloods were collected. Lipid concentrations in the separated serums were measured by using a clinical test kit based on the enzyme method (Wako Pure Chemicals Industries Co., Ltd.). Significances of the resulting experimental values were examined by the variance analysis. The other experimental conditions were the same as in Example 1.

[4] abbreviates: 0.5% in feed, 2 weeks, daily average per mouse.
Setting [5] is: ratio relative to the non-treated control group, CDF1 mice.

For the compound “5-sitosten-3-one (24-ethylcholest-5-en-3-one)”, the Feed intake was determined as 4.43 g/mouse/day in data set [1] (setting [4]); 89% in data set [1] (setting [5]); 61.56 g/mouse in data set [2] (0.1% addition to feed); 58.79 g/mouse in data set [2] (0.3% addition to feed); 53.58 g/mouse in data set [2] (0.5% addition to feed). In addition, in data set [1] (CDF1 mice, compound in feed), the “Appetite / appetite suppressing effect” value was “normal except for slight suppression and weak”. The “Feed intake (change)” value in data set [2] (0.1% addition group) is “unchanged”; in data set [2] (0.3% addition group), “slightly decreased”. In addition, in data set [2] (0.5% addition group, in total for 3 weeks), the “Decrease of feed intake” value was “about 13%”. Consider `CC(C)CCC[C@@H](C)[C@H]1CC[C@H]2[C@@H]3CCC4=CC(=O)CC[C@]4(C)[C@H]3CC[C@]12C` [4-Cholesten-3-one, 4-cholesten-3-one], for which the Feed intake stood at 4.80 g/mouse/day in data set [1] (setting [4]) and 97% in data set [1] (setting [5]). Consider `CC(C)CCC[C@@H](C)[C@H]1CC[C@H]2[C@@H]3CC(=O)C4=CC(=O)CC[C@]4(C)[C@H]3CC[C@]12C` [4-Cholestene-3,6-dione], for which the Feed intake in data set [1] (setting [5]) is reported as 101%.

In data set [3], `CC[C@H](CC[C@@H](C)[C@H]1CC[C@H]2[C@@H]3CCC4=CC(=O)CC[C@]4(C)[C@H]3CC[C@]12C)C(C)C` [4-Sitosten-3-one, 4-sitosten-3-one] yielded a Feed intake of 42.78 g/mouse.

`CC(C)CCC[C@@H](C)[C@H]1CC[C@H]2[C@@H]3CC[C@@H]4CC(=O)CC[C@]4(C)[C@H]3CC[C@]12C` [5 β-Cholestan-3-one, 5β-cholestan-3-one]: the Feed intake in data set [1] (setting [5]) came to 91%. Same read-out and setting: under `CC(C)CCC[C@@H](C)[C@H]1CC[C@H]2[C@@H]3CC=C4CC(=O)CC[C@]4(C)[C@H]3CC[C@]12C` [5-Cholesten-3-one] stands 61%; under `CC(C)CCC[C@@H](C)[C@H]1CC[C@H]2[C@@H]3C[C@@H](Br)C4=CC(=O)CC[C@]4(C)[C@H]3CC[C@]12C` [6 β-Bromo-4-cholesten-3-one, 6β-bromo-4-cholesten-3-one], 71%.

On to `CC(C)CCC[C@@H](C)[C@H]1CC[C@H]2[C@@H]3CC(O)C4=CC(=O)CC[C@]4(C)[C@H]3CC[C@]12C` (some centres unmarked) [6-Hydroxy-4-cholesten-3-one], for which, in data set [1] (setting [5]), the Feed intake was determined as 96%. `CC[C@H](CC[C@@H](C)[C@H]1CC[C@H]2[C@@H]3CC(O)C4=CC(=O)CC[C@]4(C)[C@H]3CC[C@]12C)C(C)C` (stereo partly drawn) [6-Hydroxy-4-sitosten-3-one (α:β = 2.6:1), 6-hydroxy-4-sitosten-3-one (α:β=2.6:1)] displayed a Feed intake in data set [3] of 41.77 g/mouse. On the same count and under the same terms, under `CC[C@H](CC[C@@H](C)[C@H]1CC[C@H]2[C@@H]3C[C@H](O)C4=CC(=O)CC[C@]4(C)[C@H]3CC[C@]12C)C(C)C` [6α-Hydroxy-4-sitosten-3-one, 6α-hydroxy-4-sitosten-3-one] stands 39.60 g/mouse. As for `CC(C)CCC[C@@H](C)[C@H]1CC[C@H]2[C@@H]3C=CC4=CC(=O)CC[C@]4(C)[C@H]3CC[C@]12C` [Colesta-4,6-dien-3-one], in data set [1] (setting [5]), the Feed intake is recorded as 79%.
